Results as given in patent publication US20200038478A1 (WUHAN GRECTECH CO., LTD., priority 2017, published 2020).
End groups of sequences in plain letters are not given here.

Test: general procedure: Fmoc solid-phase peptide synthesis; HBTU/HOBt
Conditions: oxidative folding step, several disulfide bridges, sequence written open

| Sequence | final HPLC purity |
| --- | --- |
| ASCNGVCSPFEMPPCGTSACRCIPVGLVVGYCRNPSG | ≥98% |
| ASCNGVCSPFEMPPCGSSACRCIPVGLVVGYCRNPSG | ≥98% |
